Results from one PubChem assay

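Genome-wide siRNA knockdown in TC32 Ewing sarcoma cells, comparing luciferase light from an NR0B1-promoter reporter with a CMV-promoter reporter 48 hours after transfection. Each siRNA was applied at 20 nM. A z-score of the log NR0B1-over-CMV signal, less the median of siRNAs with the same seed; more negative means a stronger specific loss of the NR0B1 reporter.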

The strongest results of the screen are mostly left out here. Sequences are the guide (antisense) strand, without overhang.

With UUUCUGUCACAUACGGCUC against LOC441488 the assay gave seed-corrected z-score 0.5557.
With UCAGUGAUGAUCUUGAGGU against SMARCD2 the assay gave seed-corrected z-score 0.4505.
With UGUAAUCUCAAUGUCAGUC against CCT3 the assay gave seed-corrected z-score -0.3378.
With UACGUGUAGGUAGCCCACA against APLNR the assay gave seed-corrected z-score -0.4321.
With UUCUUGAUUCUGUAGAAGC against CCDC181 the assay gave seed-corrected z-score -0.03537.
With UUCGUCUUGAUUGUGCUUG against PLPPR1 the assay gave seed-corrected z-score -1.233.
With UUCCGAAUUAUAAUAGAUG against STRBP the assay gave seed-corrected z-score 1.077.
With UAUCGUCUUAUUGUCCCAC against ARHGAP42 the assay gave seed-corrected z-score -0.9326.
With AACGAACCAAGCAACAACC against PREPL the assay gave seed-corrected z-score -0.5701.
With UGUUCAGUAAGUCAAAGAC against PPIL2 the assay gave seed-corrected z-score 0.8758.
With UUCUGCUUGAUUCAUUUGG against LCORL the assay gave seed-corrected z-score -1.539.
With UCAGUGACUCAUAGGACGG against TMEM51 the assay gave seed-corrected z-score -0.03704.
With UCUUAAAUUACAAAACAGA against CLDN4 the assay gave seed-corrected z-score 0.2676.
With UACUCUGACACUCUGUCUC against TRPT1 the assay gave seed-corrected z-score 0.2529.
With UCAAAGACAAAUUCGUCUG against GIPC2 the assay gave seed-corrected z-score -0.6734.
With UUAUCCAUCCACAAUAUGG against SEMA6A the assay gave seed-corrected z-score 0.06359.
With UGGAUAUACAGGGUGUUCC against CPED1 the assay gave seed-corrected z-score 1.052.
With UCUCGAACCAAGGUCUCCU against CCDC151 the assay gave seed-corrected z-score -0.3227.
With UUGUAGUCAAGACUCUCCA against PRAMEF10 the assay gave seed-corrected z-score 0.5642.
With UUCUUGAUCCGUCUCUUUG against TRIM38 the assay gave seed-corrected z-score 0.1066.
With UGAUUAUAACUUCUGAUUC against KIAA0825 the assay gave seed-corrected z-score 0.07964.
With UGAAGUGAUAGGCAUUUCG against HILS1 the assay gave seed-corrected z-score 0.9232.
With UCUUAUGACACGCCGAUGC against BRIX1 the assay gave seed-corrected z-score -0.4675.
With UUCGGUUUCGAUAACGACC against NIPBL the assay gave seed-corrected z-score -1.081.
With UUCUCUUAUAAAAACCAGG against SERPINC1 the assay gave seed-corrected z-score 0.231.
With UAAGCGUAGUCAAUUCUCC against KTN1 the assay gave seed-corrected z-score 0.8324.
With UUGCGGAUAGGUUCACUUG against LRRC3C the assay gave seed-corrected z-score 0.09148.
With CAGCUUGCAAGUGUCCCUG against NUTM2F the assay gave seed-corrected z-score -0.7071.
With UCUUUUUCUACCAAGUACC against AFAP1L1 the assay gave seed-corrected z-score 1.174.
With UUGAUACUGAGGAUCUUCC against KIAA1468 the assay gave seed-corrected z-score -0.8174.
With UUCCUUCUUGGGAGUCACC against CRHR1-IT1 the assay gave seed-corrected z-score 1.084.
With UGUUCAUUCUGUCCAGUAC against MED7 the assay gave seed-corrected z-score 1.198.
With UAAUCGUUCAUCUAUGAAC against ZC3H12C the assay gave seed-corrected z-score 0.5233.
With UGACUGAUUAGCAAAAUGC against CFAP36 the assay gave seed-corrected z-score 0.7172.
With UCAAGCUCUUGUAUUCUGC against EID2 the assay gave seed-corrected z-score 0.06567.
With UAUCGAACUCUCCUGGUUG against EYA4 the assay gave seed-corrected z-score 0.04916.
With UUCCGACCAAGCUCUGAGG against TCOF1 the assay gave seed-corrected z-score -0.4086.
With AAAGUUCUAGAUCCUAACU against IFI6 the assay gave seed-corrected z-score -0.8786.
With AUCCGAGUCAUAGCUGUCC against DOC2A the assay gave seed-corrected z-score -0.2998.

The results are deposited in PubChem (AID1159506; NCATS, 2015).